Measured values: PubChem BioAssay AID602313 (National Center for Advancing Translational Sciences (NCATS), 2012)
About 760 (0.19%) of roughly 390,000 compounds were called active. The shares of active, inactive and inconclusive entries below differ from those in the screen. Calls come from the whole dose curve; as a rule, active = well fitted inhibition curve with a large enough effect; inconclusive = small, poorly fitted or top-dose-only effect; inactive = flat fitted curve, though single readings scatter. Where the call is inconclusive, the potency comes from a doubtful curve fit.

Test: qHTS for Inhibitors of Vif-A3F Interactions: qHTS; note: nearly all actives have a fitted effect of over 65% in size; for activity, negative = active: % of control where 0% means no effect
Conditions: HeLa A3F-eYFP + Vif (tagged APOBEC3F with the HIV-1 protein that degrades it), YFP fluorescence increase; series mostly up to 46.1 µM; activity, negative = active: at the top concentration
Procedure, shortened: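 HeLa cells stably expressing A3F-eYFP plus Vif, plated and incubated overnight at 37 deg C, then exposed to compounds overnight at 37 deg C. Blocked degradation read as raised yellow fluorescence (Ex 488/Em 500-530).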
Potency is the fitted concentration of half-maximal effect.

Compound	Potency	activity, negative = active
O=C(NCc1ccco1)c1ccccc1O	inconclusive: 35.5 µM [inhibitor, single point]	
CCCCC(=O)NC(=S)Nc1cccc(Cl)c1N1CCCCC1	inconclusive: 6.31 µM [inhibitor, single point]	
CCOC(=O)c1c(NC(C)=O)sc2c1CCC(C=O)=C2Sc1ccccc1	inconclusive: 31.6 µM [inhibitor, single point]	
Cc1nn(-c2ccccn2)c(C)c1Oc1ccccc1O		inactive: -10.4%
CCC1CCCCN1CCCNC(=O)c1cc2c(Cl)nc3ccccc3c2s1 (stereo not drawn)	inconclusive: 35.5 µM [inhibitor, single point]	
Cc1ccc(C)n1-c1nnc(N2CCCC(C(=O)Nc3ccc(C(C)C)cc3)C2)s1 (stereo not drawn)		inactive: 5.55%
O=C(O)CN1C(=O)/C(=C\c2cccc(OCc3ccc(Cl)cc3)c2)SC1=S		inactive: -15.8%
COc1cccc(C(=O)c2sc3nc(-c4ccccc4)cc(C(F)(F)F)c3c2N)c1	inconclusive: 0.631 µM [inhibitor, full curve, poor fit]	
CCOC(=O)c1ccc2c(c1)NC(=O)C(N1CCN(c3ccc(OC)cc3)CC1)S2 (stereo not drawn)	inconclusive: 8.91 µM [inhibitor, partial curve]	
O=C(C[C@@H]1C/C=C/CC[C@@H](Cc2ccc(F)cc2)C(=O)OC[C@H](Cc2ccccc2)NC1=O)N[C@H](CO)Cc1ccccc1	inconclusive: 35.5 µM [inhibitor, single point]	
COc1ccc(NC(=O)c2sc3nc(C)c(C(=O)Nc4ccc(C)cc4C)c(-c4ccc(C)o4)c3c2N)cc1	inconclusive: 35.5 µM [inhibitor, single point]	
COc1cc(/C=C/C(=O)Nc2cc(C(F)(F)F)ccc2Cl)cc(OC)c1OC		inactive: 5.17%
CCC(C)N(CCNC(=O)c1ccc2c(c1)NC(=O)c1ccccc1S2)C1CCCCC1 (stereo not drawn)		inactive: -1.7%
CC(C)CCNC(=O)c1ccc2c(c1)NC(=O)C(CS(=O)(=O)Cc1cccc(Br)c1)N2 (stereo not drawn)	active: 11.2 µM	
Cc1ccc(Cn2cc(/C=N/Nc3ccc([N+](=O)[O-])cn3)c3ccccc32)cc1	inconclusive: 35.5 µM [inhibitor, single point]	
COc1ccc(OCCCCn2c(C3CC(=O)N(c4cccc(Cl)c4)C3)nc3ccccc32)cc1 (stereo not drawn)		inactive: 0.0167%
CCOC(=O)N1CCN(C(=S)NC(=O)c2ccc(Br)cc2)CC1	inconclusive: 20 µM [inhibitor, single point]	
COc1cc(/C=N/NC(=O)c2ccc3ccccc3c2)ccc1Oc1ccc([N+](=O)[O-])cn1	inconclusive: 15.8 µM [inhibitor, partial curve, poor fit]	
COc1ccc(CCNc2nc(-c3ccccn3)cs2)cc1OC	inconclusive: 35.5 µM [inhibitor, single point]	
N#CC1=CN(Cc2ccccc2)C=C(/C=N/Nc2ccccc2)C1	inconclusive: 35.5 µM [inhibitor, single point]	
N#Cc1ccc(NC(=O)Nc2cccc(C#N)c2)cc1		inactive: -0.379%
NS(=O)(=O)c1ccc(CCNC(=O)C2CCCCC2)cc1	inconclusive: 2.82 µM [inhibitor, single point]	
CCCCN(CCCC)CC(O)Cn1cc(/C=C/C(=O)c2ccccc2)c2ccccc21 (stereo not drawn)	inconclusive: 35.5 µM [inhibitor, single point]	

Random excerpt: four compounds from above.
Compound	Potency	activity, negative = active
COc1ccc(OCCCCn2c(C3CC(=O)N(c4cccc(Cl)c4)C3)nc3ccccc32)cc1 (stereo not drawn)		inactive: 0.0167%
CCCCC(=O)NC(=S)Nc1cccc(Cl)c1N1CCCCC1	inconclusive: 6.31 µM [inhibitor, single point]	
COc1cc(/C=C/C(=O)Nc2cc(C(F)(F)F)ccc2Cl)cc(OC)c1OC		inactive: 5.17%
Cc1ccc(C)n1-c1nnc(N2CCCC(C(=O)Nc3ccc(C(C)C)cc3)C2)s1 (stereo not drawn)		inactive: 5.55%

(list continues)

Compound	Potency	activity, negative = active
COc1cc(/C=N/NC(=O)COc2ccc([N+](=O)[O-])cc2)ccc1OCC(=O)N1CCOCC1	inconclusive: 11.2 µM [inhibitor, single point]	
CCc1ccc2nc(N(CCN(C)C)C(=O)c3ccc4ccccc4c3)sc2c1		inactive: 1.05%
CCCC(=O)Nc1ccc2c(c1)nc(CCNC(=O)c1ccco1)n2C	inconclusive: 35.5 µM [inhibitor, single point]	
Cn1cc(CN2CCCC(C(=O)Nc3ccc(-c4cccc(F)c4)cc3)C2)cn1 (stereo not drawn)		inactive: 4.61%
COc1cc(Cl)c(C)cc1NC(=O)Cn1c(NCCO)nc2ccccc21	inconclusive: 11.2 µM [inhibitor, partial curve, poor fit]	
COc1ccc(CN2CCNC(=O)C2CC(=O)NC2CCCC2)cc1OC (stereo not drawn)	inconclusive: 22.4 µM [inhibitor, single point]	
O=[N+]([O-])c1cc(-c2nc(-c3cccnc3)no2)ccc1NCc1ccccc1	inconclusive: 3.16 µM [inhibitor, single point]	
CC(C)CNC(=O)COC(=O)c1c2c(nc3ccccc13)/C(=C\c1cccs1)CC2	inconclusive: 25.1 µM [inhibitor, single point]	
CCOC(=O)c1sc(NC(=O)c2cc(CC)on2)c(C(=O)OCC)c1C	inconclusive: 3.98 µM [inhibitor, full curve, poor fit]	
Cc1c(NC(=O)C(C)OC(=O)c2ccc(NC(=O)CC#N)cc2)c(=O)n(-c2ccccc2)n1C (stereo not drawn)	inconclusive: 5.01 µM [inhibitor, full curve]	
Cc1c(NC(=S)SCc2ccccc2)c(=O)n(-c2ccccc2)n1C	inconclusive: 31.6 µM [inhibitor, single point]	
Oc1ccc(Nc2nc(N3CCCC3)c3ccccc3n2)cc1		inactive: -1.69%
O=C1CCCC2=C1C(c1ccc(O)c(O)c1)Nc1ccc3ccccc3c12 (stereo not drawn)		inactive: -1.6%
CC(C)(C)C(=O)Nc1sc2c(c1C#N)CCN(Cc1ccccc1)C2	inconclusive: 12.6 µM [inhibitor, partial curve]	
C/C(=N/NC(N)=S)c1ccc(Br)s1	active: 11.2 µM	
Cc1ccc(C)c(S(=O)(=O)c2cn(Cc3ccccc3)c3cc(F)c(F)cc3c2=O)c1		inactive: 3.88%
CNC(=O)c1ccc2c(c1)N=C(C)c1cc(C)ccc1S2	inconclusive: 22.4 µM [inhibitor, single point]	
CC(=O)N1c2ccc(S(=O)(=O)N3CCN(c4ccc(C)cc4C)CC3)cc2CC1C (stereo not drawn)		inactive: 2.96%
O=C(CSc1cccc[n+]1[O-])c1ccccc1Br		inactive: 15.4%
Cc1c(Cl)c([N+](=O)[O-])nn1CCCC(=O)Nc1sc2c(c1C#N)CCC2		inactive: 1.95%
COC(=O)[C@H](C)NC(=O)NCc1ccc(F)cc1		inactive: -9.04%
CCC(Sc1nc2ccccc2o1)C(=O)Nc1nnc(C)s1 (stereo not drawn)	inconclusive: 22.4 µM [inhibitor, partial curve, poor fit]	
CCN(C(=O)CN1C(=O)/C(=C/c2ccccc2F)SC1=S)C1CCS(=O)(=O)C1 (stereo not drawn)	inconclusive: 3.98 µM [inhibitor, partial curve, poor fit]	

Compound	Potency	activity, negative = active
CCc1ccc(NC(=O)CC2C(=O)OCCN2CC)cc1 (stereo not drawn)		inactive: 2.98%
Cc1[nH]c2ccccc2c1/C=C/c1cc[n+](C)cc1	inconclusive: 2 µM [inhibitor, partial curve, poor fit]	
Nc1ccc(N=Nc2ccccc2)cc1[N+](=O)[O-]	inconclusive: 10 µM [inhibitor, partial curve, poor fit]	
Cc1cc2nc3c(=O)n(CCc4ccccc4)c(=O)[nH]c3nc2cc1N	active: 6.31 µM	
Cc1ccc(N2C(=O)S/C(=C/c3cn(C)c4ccccc34)C2=O)cc1	inconclusive: 22.4 µM [inhibitor, single point]	
NC(=S)NN=C1Cc2cccc3cccc1c23	inconclusive: 3.55 µM [inhibitor, partial curve, poor fit]	
CC(=O)Nc1cccc(C(=O)Nc2ccc(S(=O)(=O)N3CCCCC3)cc2)c1	inconclusive: 2.51 µM [inhibitor, partial curve, poor fit]	
CCS(=O)(=O)C1=NN2C(=N)/C(=C\c3ccc(OC(=O)c4ccco4)c(OC)c3)C(=O)N=C2S1	inconclusive: 11.2 µM [inhibitor, partial curve, poor fit]	
COc1cc(/C=N/NC(=O)c2cccc(NC(=O)c3ccccc3)c2)ccc1O	inconclusive: 6.31 µM [inhibitor, single point]	
CC(=O)Cn1nnc2sc(-c3ccccc3)cc2c1=O	inconclusive: 35.5 µM [inhibitor, single point]	
CN(C)C(=S)NC(=O)c1cccc(Cl)c1	inconclusive: 35.5 µM [inhibitor, single point]	
CCCN(CCC)CCCNC(=O)Cn1ncc2c3ccccc3n(Cc3ccc(F)cc3)c2c1=O	inconclusive: 3.16 µM [inhibitor, single point]	
C=CCn1c(=NC(=O)c2cc(Cl)sc2Cl)sc2cc(S(N)(=O)=O)ccc21	inconclusive: 22.4 µM [inhibitor, single point]	
Cc1nc(C)c(-c2ccc(SCC(=O)Nc3ccccc3F)nn2)s1		inactive: -3.35%
O=C1NC(=S)S/C1=C\c1cc(Cl)cc(Cl)c1O	inconclusive: 12.6 µM [inhibitor, partial curve, poor fit]	
NC(=S)N/N=C/c1ccc(Br)o1	inconclusive: 35.5 µM [inhibitor, single point]	
CCOc1ccc(/C=C2\SC(=S)N(Nc3ccccc3)C2=O)cc1OC	inconclusive: 35.5 µM [inhibitor, single point]	
Cn1sc(NC(=O)c2cccc(Cl)c2)nc1=O		inactive: -8.8%
CC(C)CCNC(=O)c1ccc2c(Cl)c3c(nc2c1)CCC3	inconclusive: 3.98 µM [inhibitor, partial curve]	
COc1cc(/C=C2\SC(=Nc3ccc(O)cc3)NC2=O)cc(OC)c1OC		inactive: -15.4%
COc1cc(C(=O)OCc2nc3ccsc3c(=O)[nH]2)c([N+](=O)[O-])cc1OC	inconclusive: 5.01 µM [inhibitor, single point]	
CC(C)/C=C1\CC/C(=C\c2ccc(N(C)C)cc2)C1=O	inconclusive: 35.5 µM [inhibitor, single point]	
